PubChem BioAssay AID504804 | Drosophila RNAi Screening Center, 2011
The deposit covers about 19,000 reagents; shown is a random part of those with a known target gene and a result. Over the whole deposit, 47 (0.25%) are marked active. 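Signals are raw, not normalised; exact z-scores behind calls not deposited; actives needed confirmation, so some wells reaching 2 SD are inactive.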 The numbers tell different reagents against one gene apart. A plus sign joins genes that one reagent is predicted to hit. No sequences are given here.

Test: 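dsRNAs that improve Kc cell survival under doxorubicin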 (primary screen)
Cell system: Drosophila Kc cells
Knock-down reagent: long dsRNA against Drosophila genes, 0.5 µg dsRNA per well
Duration: 96 h (48 h knock-down, then 48 h drug)
Treatment: doxorubicin 5 µg/ml for 48 h, added 48 h after dsRNA
Measured: 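Viability measured as cellular ATP by luminescence after 48 h knock-down then 48 h doxorubicin at 5 µg/ml; unnormalised plate counts for each replicate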
Scale: raw ATP luminescence: higher = more viable cells, protection from doxorubicin
Call rule: 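Active when both duplicate wells lie at least 2 SD above the plate mean and protection is confirmed by rescreening and independent dsRNAs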

Depletion of CG6293 gave: raw ATP luminescence, replicate 1 = 48227; raw ATP luminescence, replicate 2 = 30913; inactive.
Silencing of p130CAS + Dic61B resulted in: raw ATP luminescence, replicate 1 = 50823; raw ATP luminescence, replicate 2 = 65490; inactive.
Depletion of CG16775 gave: raw ATP luminescence, replicate 1 = 70843; raw ATP luminescence, replicate 2 = 48437; inactive.
After knock-down of CG34396 #1, the record shows raw ATP luminescence, replicate 1 = 53553; raw ATP luminescence, replicate 2 = 32527; inactive.
Silencing of CG34396 #2 gave: raw ATP luminescence, replicate 1 = 40000; raw ATP luminescence, replicate 2 = 40140; inactive.

In a second layout: results already given.
Gene,reagent,"raw ATP luminescence, replicate 1","raw ATP luminescence, replicate 2",call
CG16775,1,70843,48437,inactive
CG34396,1,53553,32527,inactive

More reagents:
Knock-down of CG34282 gave: raw ATP luminescence, replicate 1 = 56880; raw ATP luminescence, replicate 2 = 60300; inactive.
Knock-down of salr (spalt-related) resulted in: raw ATP luminescence, replicate 1 = 44297; raw ATP luminescence, replicate 2 = 81707; inactive.
Depletion of neb (nebbish) resulted in: raw ATP luminescence, replicate 1 = 91637; raw ATP luminescence, replicate 2 = 90633; inactive.
Knock-down of PGRP-SC2 (Peptidoglycan recognition protein SC2) gave: raw ATP luminescence, replicate 1 = 40527; raw ATP luminescence, replicate 2 = 76800; inactive.
Silencing of CG32793 #1 came out at: raw ATP luminescence, replicate 1 = 57270; raw ATP luminescence, replicate 2 = 58970; inactive.
CG32793 #2 gave raw ATP luminescence, replicate 1 = 47110; raw ATP luminescence, replicate 2 = 53020; inactive.
With knock-down of CG5543 the results were raw ATP luminescence, replicate 1 = 63020; raw ATP luminescence, replicate 2 = 79867; inactive.
